In patent US10660882B2, “Prophylactic or therapeutic agent for giant cell tumors occurring in bone and soft tissue or for chondrosarcoma” (NIPPON CHEMIPHAR CO., LTD., priority 2012, dated 2020):
At least one compound was matched to its structure with a doubt left.

Legend:
GCT cultured cells = test: Cell proliferation of GCT cultured cells, Cell Counting Kit-8, absorbance at 450 nm; format: cell-based, human; details: GCT cultured cells case 1, case 2; various concentrations
Method: (§1) GCT cultured cells (case 1, patient with osteoclastoma in a distal part of the right femur; case 2, patient with osteoclastoma in a distal part of the right femur) were cultured on a 96-well culture plate, zaltoprofen was added to the cells at various concentrations (5, 10, 50, 100, and 200 μM), color development was attained with Cell Counting Kit-8 (CCK-8) (Dojindo) 24 hours thereafter, and absorbance was measured at 450 nm 3 hours thereafter (FIG. 1).
In the same manner as that of Example 1, the GOT cultured cells (case 1, case 2) were cultured, a non-steroidal anti-inflammatory agent (acetaminophen, indomethacin, or diclofenac) or troglitazone was added at various concentrations, and absorbance was measured at 450 nm (FIGS. 12 and 13).
(§2) In the same manner as that of Example 1, the GCT cultured cells (case 1, case 2), the cells derived from giant cell tumor of tendon sheath (GCT of tendon sheath), or the cells derived from pigmented villonodular synovitis (diffuse-type GCT) were cultured, and then pioglitazone, a thiazolidine derivative, was added at various concentrations, and absorbance was measured at 450 nm (FIG. 32).

[1] = tested on: cultured cells of giant cell tumor of tendon sheath; test: Cell proliferation of cultured cells of giant cell tumor of tendon sheath, CCK-8; format: cell-based, human; details: various concentrations
Method: as §1, §2

[2] = tested on: cultured cells of pigmented villonodular synovitis; test: Cell proliferation of cultured cells of pigmented villonodular synovitis, CCK-8; format: cell-based, human; details: various concentrations
Method: as §1, §2

[3] = tested on: chondrosarcoma-derived cell line (H-EMC-SS); test: Cell proliferation of chondrosarcoma-derived cell line, CCK-8; format: cell-based; details: various concentrations
caspase 3 [4] = test: Caspase 3 staining of chondrosarcoma-derived cell line; format: cell-based; details: compared with control
Method: (§3) Further, the aforementioned GCT cultured cells of the case 1 were cultured on chamber cover slide glass, and zaltoprofen was added at different concentrations (100, and 200 μM) 24 hours afterward. Then, 8 hours and 24 hours afterward, the cells were fixed with 4% paraformaldehyde, staining with caspase 3 and Tunel assay were performed, and presence or absence of apoptosis was analyzed. Observation was performed with a fluorescence microscope (BZ-9000) of Keyence, and positive images for each concentration were quantitatively observed (FIGS. 2 to 5).
Further, in the same manner as that of Example 1, the chondrosarcoma-derived cell line was subjected to caspase 3 staining, and presence or absence of apoptosis was analyzed (FIGS. 46 and 47). As a result, it was successfully observed that the caspase 3-positive ratio increased in the cells added with zaltoprofen at a concentration of 200 μM, troglitazone at a concentration of 100 μM, or pioglitazone at a concentration of 200 μM, compared with the control.

PPARγ [5] = test: PPARγ immunostaining of chondrosarcoma-derived cell line; format: cell-based
[6] = tested on: cultured cells of giant cell tumor of tendon sheath; test: Tunel assay of cultured cells of giant cell tumor of tendon sheath; format: cell-based, human; details: 2000 μM, compared with control
Method: as §3, with “5). […] Further, in the same manner as that of Example 1, the cultured cells of giant cell tumor of tendon sheath and the cultured cells of pigmented villonodular synovitis were subjected to staining with caspase 3 and Tunel assay, and presence or absence of apoptosis was analyzed (FIGS. 18 to 25). As a result, it was observed that the Tunel-positive ratio and caspase 3-positive ratio increased in the cells added with zaltoprofen at a concentration of 400 μM or troglitazone at a concentration of 2000 μM compared with those observed for the control.” for “5).”

[7] = tested on: cultured cells of pigmented villonodular synovitis; test: Tunel assay of cultured cells of pigmented villonodular synovitis; format: cell-based, human; details: 2000 μM, compared with control
Method: as §3, with “5). […] Further, in the same manner as that of Example 1, the cultured cells of giant cell tumor of tendon sheath and the cultured cells of pigmented villonodular synovitis were subjected to staining with caspase 3 and Tunel assay, and presence or absence of apoptosis was analyzed (FIGS. 18 to 25). As a result, it was observed that the Tunel-positive ratio and caspase 3-positive ratio increased in the cells added with zaltoprofen at a concentration of 400 μM or troglitazone at a concentration of 2000 μM compared with those observed for the control.” for “5).”

caspase 3 [8] = test: Caspase 3 staining of cultured cells of giant cell tumor of tendon sheath; format: cell-based, human; details: 2000 μM, compared with control
Method: as §3, with “5). […] Further, in the same manner as that of Example 1, the cultured cells of giant cell tumor of tendon sheath and the cultured cells of pigmented villonodular synovitis were subjected to staining with caspase 3 and Tunel assay, and presence or absence of apoptosis was analyzed (FIGS. 18 to 25). As a result, it was observed that the Tunel-positive ratio and caspase 3-positive ratio increased in the cells added with zaltoprofen at a concentration of 400 μM or troglitazone at a concentration of 2000 μM compared with those observed for the control.” for “5).”

caspase 3 [9] = test: Caspase 3 staining of cultured cells of pigmented villonodular synovitis; format: cell-based, human; details: 2000 μM, compared with control
Method: as §3, with “5). […] Further, in the same manner as that of Example 1, the cultured cells of giant cell tumor of tendon sheath and the cultured cells of pigmented villonodular synovitis were subjected to staining with caspase 3 and Tunel assay, and presence or absence of apoptosis was analyzed (FIGS. 18 to 25). As a result, it was observed that the Tunel-positive ratio and caspase 3-positive ratio increased in the cells added with zaltoprofen at a concentration of 400 μM or troglitazone at a concentration of 2000 μM compared with those observed for the control.” for “5).”

PPARγ [10] = test: PPARγ immunostaining of cells derived from giant cell tumor of tendon sheath; format: cell-based, human; details: 2000 μM
PPARγ [11] = test: PPARγ immunostaining of cells derived from pigmented villonodular synovitis; format: cell-based, human; details: 2000 μM

Structure (SMILES)	cell proliferation (absorbance at 450 nm) (GCT cultured cells)	cell proliferation (absorbance) [1]	cell proliferation (absorbance) [2]	cell proliferation (absorbance) [3]	caspase 3-positive ratio (caspase 3 [4]; 200 μM pioglitazone)	expression of PPARγ (PPARγ-positive images) (PPARγ [5]; pioglitazone at a concentration of 200)	Tunel-positive ratio [6]	Tunel-positive ratio [7]	caspase 3-positive ratio (caspase 3 [8])	caspase 3-positive ratio (caspase 3 [9])	expression of PPARγ (PPARγ-positive images) (PPARγ [10])	expression of PPARγ (PPARγ-positive images) (PPARγ [11])	caspase 3-positive ratio (caspase 3 [4]; 100 μM troglitazone)	expression of PPARγ (PPARγ-positive images) (PPARγ [5]; 100 μM troglitazone)
CCc1ccc(CCOc2ccc(CC3SC(=O)NC3=O)cc2)nc1 (stereo not drawn) [pioglitazone]	suppressed in a pioglitazone concentration-dependent manner	suppressed in a pioglitazone concentration-dependent manner	suppressed in a pioglitazone concentration-dependent manner	suppressed in a troglitazone, pioglitazone, or zaltoprofen concentration-dependent manner	increased	expression of PPARγ was successfully observed	–	–	–	–	–	–	–	–
Cc1c(C)c2c(c(C)c1O)CCC(C)(COc1ccc(CC3SC(=O)NC3=O)cc1)O2 (stereo not drawn) [troglitazone]	suppression of proliferation	suppressed in a zaltoprofen or troglitazone concentration-dependent manner	suppressed in a zaltoprofen or troglitazone concentration-dependent manner	suppressed in a troglitazone, pioglitazone, or zaltoprofen concentration-dependent manner	–	–	increased	increased	increased	increased	expression of PPARγ was successfully observed	expression of PPARγ was successfully observed	increased	expression of PPARγ was successfully observed
